PubChem BioAssay AID1508597 – Cure First, 2020
Shown is an unselected part of the about 2,100 reagents, in one setting of the screen. 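Calls flag viability under 80% in either arm, not effects specific to rucaparib; the reference for percent is not stated.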 Unmarked entries are inactive. Reagent sequences are not shown. The record does not give: the 100% reference.

- Purpose: 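Survival screen with siRNA in ovarian cancer cells derived from patients, with or without rucaparib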 (primary screen)
- System: human ovarian carcinoma lines grown from tumours: OCI-P5x (papillary serous) and OCI-C5x (clear cell)
- Knock-down reagent: siRNA pool against human genes, 1.25 pmol siRNA per well
- Timing: 72 h or 96 h, depending on the cell culture
- Treatment: rucaparib 20 µM (about IC30) or vehicle, present until read-out
- Rucaparib or vehicle: Vehicle
- Cell line: OCI-C5x (clear cell)
- Read-out: 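ATP luminescence measured at 72 or 96 h according to the culture, then normalised and expressed as percent viability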
- Scale: viability, normalised: higher = more viable cells remaining
- Rule for the call: 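a well counts as a hit if its normalised viability is under 80 percent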
- Meaning of the calls: active = viability under 80%; inactive = viability 80% or more

SMYD4, technical replicate 1 gave viability, normalised (%) = 56.3 (active).
SMYD4, technical replicate 2 showed viability, normalised (%) = 52.8 (active).
With SMYD4, technical replicate 3 the deposit lists viability, normalised (%) = 46.4 (active).
For NCOR1, technical replicate 1 the deposit lists viability, normalised (%) = 30.6 (active).
NCOR1, technical replicate 2 scored viability, normalised (%) = 36.9 (active).
NCOR1, technical replicate 3 gave viability, normalised (%) = 38.3 (active).

Active calls, of those listed so far:
SMYD4, technical replicate 1 → viability, normalised (%) = 56.3 (active)
SMYD4, technical replicate 2 → viability, normalised (%) = 52.8 (active)
SMYD4, technical replicate 3 → viability, normalised (%) = 46.4 (active)
NCOR1, technical replicate 1 → viability, normalised (%) = 30.6 (active)
NCOR1, technical replicate 2 → viability, normalised (%) = 36.9 (active)
NCOR1, technical replicate 3 → viability, normalised (%) = 38.3 (active)

Next entries follow:
KLF6, technical replicate 1 showed viability, normalised (%) = 47.2 (active).
With KLF6, technical replicate 2 the deposit lists viability, normalised (%) = 51.2 (active).
KLF6, technical replicate 3 gave viability, normalised (%) = 58.3 (active).
MSL3, technical replicate 1 showed viability, normalised (%) = 50.2 (active).
For MSL3, technical replicate 2, the values are viability, normalised (%) = 59.9 (active).
MSL3, technical replicate 3 showed viability, normalised (%) = 51.9 (active).
